For 29 sequences, z-score results are on record in PubChem BioAssay AID1508600 (Functional Genomics Laboratory (NCATS/FGL), 2020).

The whole screen tested about 53,000 sequences, of which about 3,700 (7%) were called active.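 Rule for the calls: active = gene knockdowns whose robust z-score for IL-1 alpha signal is at least 2 or at most -2, so actives lie on both sides; inactive = the rest.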 This is one part of the list.

The nature of the assay: Components of the Cytosolic LPS Sensing Pathway: Gene Identification via Genome-wide siRNA Screen.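 Note: robust z of the log signal after scaling to non-targeting control siRNA wells of the plate.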 To be noted: RAW264.7 macrophages, IL-1a HTRF, actives lie on both sides, screened at 100 nM (by protocol), cells primed 5 h with Pam3CSK4 first. The procedure, abridged:
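Using IL-1a HTRF as read-out, the screen measured release from RAW264.7 cells after 48h siRNA knockdown (100 nM), 5 h Pam3CSK4 priming and 24 h cytosolic LipidA. Values were expressed relative to negative-control wells as robust z-scores.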
As for GGACAAUCCAUAAGUUAAATT against Scai, the z-score is inactive: 0.22.

For the sequence GGUGAUCAAUACAAGCCGATT against Art1, the z-score was inactive: -0.534. As for GCUAAUGUCCGGUUUGUUGTT against Recql5, the figure is inactive: -0.75. Consider CGGAAAGGCGAGGGAUACUTT against Fkbp5, for which the z-score is inactive: -1.63. CCAAGCAUAUGUGGUUGUUTT against Gpbp1l1: the z-score is active: -2.01. Then GCAGUGACCUCUGGUCAUUTT against Abcc1, with inactive: -0.133; and GGGCUCUACUAUUUUUUUUTT against Polh, with active: -2.68. With GGUACAGCUGGUUCUCUUUTT against Olfr1018, the z-score was inactive: 1.2.

With GGACAACAGUGGAAGGCUCTT against Serpinb1a, the z-score was inactive: 0.841. For the sequence GCCUCUUCAUUUAGCUAAUTT against Klhl10, the z-score was inactive: 0.85. Regarding GGAAAAAGAAAAAGAAGGUTT against Timeless, the z-score was inactive: -1.73. For CCGUGAACCUAAACCUGUGTT against Rhog, the z-score was inactive: -0.872. For the sequence “GCUGGUGUCUUAUGGCCUATT against 9130008F23Rik”, the z-score was active: -2.02.

Take GGCAGUAGCCAGAAGGCAUTT against Rnf215: the z-score is inactive: 0.373. Then GCACCUAUUCAAUGAGAAGTT against Chrnd, with inactive: 0.614; and GGCUAGAAACUUGAGUUUCTT against Prnp, with inactive: 0.831; and GUUGUCCUCUUUGUCAUCATT against Olfr502, with active: -3.63. As to GGUGAAAUAUGUGUAUCAGTT against Psmb9, the z-score is inactive: 1.39. As to CGAAGCUCAACAGAUUCCUTT against Prl7a2, the z-score is inactive: -0.278. As for GCGAAAGACAGACACGACCTT against Slc4a4, the figure is inactive: 0.377. Take GGAACCAAAGCGAAUUUUATT against Hoxa11: the z-score was inactive: 0.0373. Regarding GGAGUGACAAAAAUGUCGGTT against Snx13, the z-score was inactive: -0.56. CCUACAAGAACGAAGAUUUTT against Pla2g4d: the z-score was inactive: -1.67. As for “GGAGUUCAAGAUCUGGAAGTT against 2410004B18Rik”, the figure is inactive: -0.0896; as for GGCUUCCUCAAGAACUUUCTT against Acly, inactive: 0.0643; as for GCGAUGCUGGCAAGUAUGUTT against Robo1, inactive: 0.45. With GCCAAUGAAAACCUUUUGCTT against Parp9, the z-score is inactive: -0.736. Take GGUCAUUCGCUUCGAAAAGTT against C1qb: the z-score is active: -2.05. For the sequence CCACAUACAUUUCACAGGGTT against Kdf1, the z-score was inactive: -0.806.
